Measurements as given in ChEMBL document CHEMBL1134623, “Design and synthesis of a series of (2R)-N(4)-hydroxy-2-(3-hydroxybenzyl)-N(1)- [(1S,2R)-2-hydroxy-2,3-dihydro-1H-inden-1-yl]butanediamide derivatives as potent, selective, and orally bioavailable aggrecanase inhibitors” (J Med Chem, 2001).

By UniProt entry, the sequences of proteins in these tests, tags left out. Where a name states a change or a piece, a line headed by the entry shows the natural chain unless it says otherwise.
UniProt P08253: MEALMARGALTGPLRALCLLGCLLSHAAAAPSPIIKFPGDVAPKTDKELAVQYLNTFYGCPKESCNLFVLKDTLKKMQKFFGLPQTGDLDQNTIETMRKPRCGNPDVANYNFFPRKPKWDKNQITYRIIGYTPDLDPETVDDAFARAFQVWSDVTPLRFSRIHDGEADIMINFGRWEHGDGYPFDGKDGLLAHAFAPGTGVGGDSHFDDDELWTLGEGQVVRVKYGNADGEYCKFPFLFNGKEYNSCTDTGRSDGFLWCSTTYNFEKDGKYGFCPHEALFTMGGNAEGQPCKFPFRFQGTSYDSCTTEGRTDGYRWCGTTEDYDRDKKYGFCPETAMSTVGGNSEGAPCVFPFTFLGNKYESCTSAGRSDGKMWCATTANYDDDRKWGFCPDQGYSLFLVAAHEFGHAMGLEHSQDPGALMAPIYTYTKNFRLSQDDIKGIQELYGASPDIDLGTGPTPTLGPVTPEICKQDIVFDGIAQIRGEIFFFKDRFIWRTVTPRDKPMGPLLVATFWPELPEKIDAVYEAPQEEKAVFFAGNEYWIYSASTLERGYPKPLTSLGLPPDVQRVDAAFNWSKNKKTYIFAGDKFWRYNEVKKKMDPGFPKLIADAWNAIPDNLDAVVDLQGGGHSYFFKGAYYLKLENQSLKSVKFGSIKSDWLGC

Biological target: 72 kDa type IV collagenase (Homo sapiens, UniProt P08253)
Assay: Inhibition of matrix metalloprotease-2

- Ki: < 1 nM
SMILES: CNC(=O)[C@H](Cc1ccc(OC)cc1)NC(=O)[C@@H](CC(=O)NO)CC(C)C
